Patent US20110151469A1, “INTERFERON EPSILON (IFNE1) AS A MARKER FOR TARGETED CANCER THERAPY” (PIRAMAL LIFE SCIENCES LIMITED, priority 2008, published 2011)
For some of these results: At least one structure is not confirmed: it was looked up by name or label, or the drawing left a doubt. Some results were stated once for a whole list of compounds, not compound by compound.

What was measured:
Type in all cases: cell-based, human
[1] = test system: IFNE1 mRNA in HCT116 cells; assay: QRT-PCR of IFNE1 transcript level in HCT116 cells treated with CDK and non-CDK inhibitors; settings: 6 hours, P276-00 250 nM, Flavopiridol 200 nM, Fascaplysin 500 nM, Roscovitine 20 μM, Olomoucine 180 μM, DRB 50 μM, 5-Fluorouracil 800 nM, Camptothecin 30 nM, Etoposide 3 μM, Vinblastin 1.5 μM, Quercitin 750 nM, Paclitaxel 600 nM, Doxorubicin 100 nM
Experimental: HCT116 cells were treated with various CDK inhibitors [P276-00 (250 nM), Flavopiridol (200 nM), Fascaplysin (500 nM), Roscovitine (20 μM), Olomoucine (180 μM), 5,6-dichloro-1-beta-D-ribofuranosylbenzimidazole (DRB, 50 μM)] and non-CDK inhibitors [5-Fluorouracil (800 nM), Camptothecin (30 nM), Etoposide (3 μM), Vinblastin (1.5 μM), Quercitin (750 nM), Paclitaxel (600 nM), Doxorubicin (100 nM)] for 6 hours. The level of IFNE1 mRNA was estimated using Real Time RT-PCR. Using Actin gene for normalization, relative IFNE1 expression level was plotted as log fold change.
To study if IFNE1 expression is a result of CDK inhibition, HCT116 cells were treated with a variety of CDK and non-CDK inhibitors and IFNE1 transcript level were measured using quantitative QRT-PCR. HCT116 cells were chosen for this assay because IFNE1 level seems to be most regulated in this cell line. The cells were treated with a variety of CDK inhibitors [P276-00 (250 nM), Flavopiridol (200 nM), Fascaplysin (500 nM), Roscovitine (20 μM), Olomoucine (180 μM), 5,6-dichloro-1-beta-D-ribofuranosylbenzimidazole (DRB) (50 μM)] and non-CDK inhibitors [5-Fluorouracil (800 nM), Camptothecin (30 nM), Etoposide (3 μM), Vinblastin (1.5 μM), Quercitin (750 nM), Paclitaxel (600 nM), Doxorubicin (100 nM)] for 6 hours and the IFNE1 transcript level were estimated. […]

[2] = test system: IFNE1 mRNA in Calu-1 cells; assay: QRT-PCR of IFNE1 level in Calu-1 cells treated with P276-00 or Flavopiridol; settings: 1.2 μM of P276-00, 450 nM of Flavopiridol
Experimental: (§1) FIGS. 3A, 3B and 3C show expression of IFNE1 in different cancer cell lines treated with P276-00 and Flavopiridol. The different cell lines were treated with the agent for the indicated times and the level of IFNE1 mRNA were estimated using Real Time RT-PCR. Using the Actin gene for normalization, IFNE1 expression level was plotted as log fold change relative to the signal from the control untreated cells.
(§2) The expression of IFNE1 in response to P276-00 or Flavopiridol was also studied in different cancer cell lines such as HCT116, HL-60 (leukemia) and Calu-1. HCT116, Calu-1, H460 and HL-60 cells were obtained from ATCC and were maintained in culture medium with 10% fetal bovine serum. P276-00 and Flavopiridol were synthesized in-house and 10 mM stocks in DMSO were used for the assays. HCT116 (FIG. 3A) cells in culture were treated with P276-00 and Flavopiridol at 200 nM and 250 nM respectively for 6 hours, 12 hours and 24 hours. HL-60 (FIG. 3B) cells were treated with 300 nM of P276-00 and […] of Flavopiridol for 3 hours, 6 hours, 12 hours and 24 hours and Calu-1 (FIG. 3C) cells were treated with 1.2 μM of P276-00 and 450 nM of Flavopiridol for 4 hours, 8 hours, 12 hours, 24 hours and 48 hours. RNA was prepared from the samples and QRT-PCR was performed to estimate level of IFNE1.

[3] = test system: IFNE1 mRNA in HCT116 cells; assay: QRT-PCR of IFNE1 level in HCT116 cells treated with P276-00 or Flavopiridol; settings: P276-00 and Flavopiridol at 200 nM and 250 nM respectively
Experimental: as §1, §2

[4] = test system: IFNE1 mRNA in HL-60 cells; assay: QRT-PCR of IFNE1 level in HL-60 cells treated with P276-00 or Flavopiridol; settings: 300 nM of P276-00, 100 mM of Flavopiridol
Experimental: as §1, §2

SMILES	change of IFNE1 mRNA level [1]	time of treatment within which IFNE1 was up-regulated [2]	time of treatment within which IFNE1 was up-regulated [3]	time of treatment within which IFNE1 was up-regulated [4]
Cn1cnc2c(NCc3ccccc3)nc(NCCO)nc21 [Olomoucine]	upregulation	–	–	–
CN1CC[C@@H](c2c(O)cc(O)c3c(=O)cc(-c4ccccc4Cl)oc23)[C@@H]1CO.Cl [Compound P276-00, (+)-trans-2-(2-Chloro-phenyl)-5,7-dihydroxy-8-(2-hydroxymethyl-1-methyl-pyrrolidin-3-yl)-chromen-4-one hydrochloride]	–	≤ 6 h	≤ 6 h	≤ 6 h
CN1CC[C@H](c2c(O)cc(O)c3c(=O)cc(-c4ccccc4Cl)oc23)[C@H](O)C1 [Flavopiridol]	–	≤ 6 h	≤ 6 h	≤ 6 h
